system: human peripheral blood neutrophils; assay: Human neutrophil viability by propidium iodide exclusion, flow cytometry; settings: neutrophil IC50 higher than cancer cell line IC50
Method: Figure 3 Assessment of human neutrophil viability in response to kinase inhibitor treatment Human peripheral blood neutrophils from three healthy donors were primed with G-CSF or GM-CSF for 1 hour before addition of selected kinase inhibitors (as shown) or DMSO (control) at concentrations as indicated. Neutrophil viability was assessed after 18 hours of treatment, by propidium iodide exclusion measured by flow cytometry. Mean ± SEM shown.
Donors were 18 years of age or older and had not taken anti-inflammatory medications during the 2 weeks before donating. […] Human neutrophils were then isolated on a three-layer Percoll gradient as described for mouse bone marrow neutrophils as described. […] Neutrophils were resuspended in DMEM/10%FBS, and primed with 10 ng/mL recombinant human G-CSF (Amgen) or 10 ng/mL recombinant human GM-CSF (Leukine, Sargramostim) for 1 h. Compounds or DMSO carrier were added for […]. Viability was assessed by staining neutrophils with propidium iodide and analyzing on a BD Fortessa.

SMILES | IC50 in human neutrophils relative to cancer cell lines tested
NC(=O)Nc1cc(-c2cccc(F)c2)sc1C(=O)N[C@H]1CCCNC1 [AZD7762] | at least 10 fold
Cn1c(=O)n(-c2ccc(C(C)(C)C#N)cc2)c2c3cc(-c4cnc5ccccc5c4)ccc3ncc21 [BEZ-235] | at least 10 fold
CC[C@@H]1C(=O)N(C)c2cnc(Nc3ccc(C(=O)NC4CCN(C)CC4)cc3OC)nc2N1C1CCCC1 [(R)-BI-2536] | at least 10 fold

Reference: article PMC5601625, “Defining a therapeutic window for kinase inhibitors in leukemia to avoid neutropenia” (Oncotarget, 2017)
